These results are taken from PubChem BioAssay AID493014 (National Center for Advancing Translational Sciences (NCATS), 2011).

The assay can be described thus: qHTS Assay to Find Inhibitors of Chronic Active B-Cell Receptor Signaling. The settings on record: ABC-DLBCL IkBa-CBG/CBR reporter, luminescence ratio (green luciferase fused to IkBa over red control in TMD8 lymphoma cells), 4 h. The method, boiled down: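 Concentration-response series (up to 46 uM) were applied to TMD8 dual-reporter cells for 4 h at 37C with doxycycline. Green/red ratio, after filter-overlap correction, defined %Activity; red signal alone was normalised to basal cells and zero luminescence.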
A general note: qHTS replaces the single test concentration by a dilution series.

Setting [1] is: measured here: CBR red luminescence, cell number.
Where [2] appears, read: measured here: IkBa-CBG green luminescence.

This is one part of the list. The main result of the screen is listed elsewhere. These columns were measured beside it and carry no call. The list favours compounds with an active or inconclusive main result. Words in brackets tell the shape of the fitted curve; partial curves, single points and poor fits give uncertain potencies.

As a reminder, the AC50 is the concentration at which the activity in the assay is half-maximal.

With `Cc1cc(NC(=O)CC2Oc3ccccc3NC2=O)ccc1Br` (stereo not drawn), the AC50 under setting [1] was 11.2 µM [falling, single point]. For `COc1cc(/C=c2/sc3nc(-c4ccccc4)c(-c4ccccc4)n3c2=O)cc(OC)c1OC`, under setting [1], the AC50 was 29.1 µM [falling, single point].

Take `O=C(C[n+]1ccccc1)Nc1c(Cl)cc(Cl)cc1Cl`: under setting [1], the AC50 was 22.4 µM [falling, single point]. Turning to `CC1CNCCN1S(=O)(=O)c1cccc2cnccc12` (stereo not drawn), the AC50 is 16.4 µM [falling, single point] under setting [1] and 32.6 µM [rising, partial curve, poor fit] under setting [2]. `O=C(c1ccccc1)[C@@H]1[C@@H](C(=O)c2ccc(F)cc2)[C@@]2(C(=O)Nc3ccccc32)[C@H]2c3ccccc3C=CN12`: the half-maximal activity concentration (AC50) under setting [1] was 14.6 µM [falling, partial curve] and the AC50 under setting [2] was 18.4 µM [rising, partial curve, poor fit]. Consider `O=C(Nc1ccc(C(=O)NCc2ccccc2)cc1)C1=CSCCO1`, for which, under setting [1], the AC50 was 12.6 µM [rising, partial curve, poor fit]. On the same count and under the same terms, the figure for `CCNCC(=O)N1c2ccccc2CCc2ccc(NC(C)=O)cc21` is 25.9 µM [rising, single point]. On to `COC(=O)CC(N)c1ccc(OC)c2ccccc12` (stereo not drawn), for which the AC50 under setting [1] is 16.4 µM [falling, single point].

With `COc1ccc(CNC(=O)COC(=O)CCC(=O)c2cccs2)cc1`, the AC50 under setting [1] is 6.31 µM [rising, single point]. `Cc1cccc(CN2CCN(C(c3ccccc3)c3ccc(Cl)cc3)CC2)c1` (stereo not drawn): the AC50 under setting [1] is 31.6 µM [rising, single point]. Still for that read-out and setting: with `CC1CCN(C(=O)COC(=O)c2cc3ccccc3oc2=O)CC1` the figure was 6.51 µM [rising, single point]; with `O=C(CCCN1C(=O)C2CC=CCC2C1=O)Nc1cccc(F)c1` (stereo not drawn), 6.31 µM [rising, single point]. On the same count and under the same terms, the figure for `COc1ccc(C2=Nn3c(nnc3-c3ccccn3)SC2)cc1` is 11.2 µM [falling, partial curve, poor fit]. As for `O=C(Cc1ccc(-n2c(=O)c3ccccc3n(Cc3ccccc3Cl)c2=O)cc1)NCC1CCCO1` (stereo not drawn), the AC50 under setting [2] was 2 µM [falling, full curve]. Turning to `Cc1c(C)n(C)c2ccc(C(=O)NCCc3ccco3)cc12`, the AC50 under setting [1] was 2.82 µM [falling, full curve].

Consider `CC(=O)c1sc(NC(=O)C2CC(=O)N(Cc3ccccc3)C2)nc1-c1ccccc1` (stereo not drawn), for which the AC50 under setting [1] is 7.31 µM [falling, partial curve]. Same read-out and setting: the figure for `COc1ccc(COC(=O)N/N=C(\C)CC(=O)Nc2ccc(Cl)cc2)cc1` is 14.6 µM [falling, partial curve, poor fit].

`O=C(Nc1ccc(S(=O)(=O)Nc2ncccn2)cc1)c1ccco1`: the AC50 was 20.6 µM [falling, single point] under setting [1] and 20.6 µM [rising, partial curve, poor fit] under setting [2].

Consider `Cc1c(NC(=S)Nc2cccc(Cl)c2)c(=O)n(-c2ccccc2)n1C`, for which the AC50 under setting [1] is 6.31 µM [rising, single point].

Consider `CS(=O)(=O)N1CCc2cc(C(=O)Nc3ccc(Br)cc3)ccc21`, for which the AC50 under setting [1] is 2 µM [rising, full curve, poor fit].

In the case of `O=C(O)c1cccc(N/N=C/c2cccc3ccccc23)c1`, the AC50 under setting [1] is 7.94 µM [falling, partial curve]. On the same count and under the same terms, with `CC(=C/C(=O)O)/C=C/c1ccco1` the figure was 18.4 µM [falling, partial curve]; with `O=S(=O)(NC1CCCCC1)c1ccc(N2CCOCC2)nc1`, 11.2 µM [rising, partial curve, poor fit]. Same read-out and setting: the figure for `O=C(NNc1c2ccccc2nc2ccccc12)c1cccc(O)c1` is 23.1 µM [falling, partial curve, poor fit]; for `CC1=CC(C)(C)N2C(=O)C3(C(C#N)=C(N)OC4=C3C(=O)CC(C)(C)C4)c3c(C)c(C)cc1c32` (stereo not drawn) it is 3.26 µM [rising, full curve, poor fit].

As for `COc1ccc(Cc2nc(-c3ccncc3)no2)cc1`, under setting [1], the AC50 is 7.94 µM [rising, partial curve, poor fit]. `CCOc1ccc(/C=N/N(C)c2ccccc2)cc1OC`: under setting [1], the AC50 was 6.51 µM [rising, full curve, poor fit]. Same read-out and setting: the figure for `Cc1ccc(S(=O)(=O)C(CNS(=O)(=O)c2ccc(F)c(C(F)(F)F)c2)c2ccco2)cc1` (stereo not drawn) is 0.282 µM [falling, full curve]; for `COc1ccc(N2C(=O)c3cc4ccccc4cc3C2=O)cc1` it is 12.6 µM [rising, single point]. The same measure, in the same setting: with `CC(=O)N(/N=C1\Sc2ccccc2C1=O)c1cccc(C)c1` the figure was 1.58 µM [falling, full curve, poor fit]; with `COc1cc(C(=O)N/N=C/c2ccc(OC(=O)c3ccccc3Cl)cc2)ccc1O`, 6.31 µM [falling, partial curve]. On the same count and under the same terms, with `C=CCn1c(=O)c2c(nc3n2CCCN3Cc2ccccc2)n(C)c1=O` the figure was 3.98 µM [falling, single point]. With `O=C(Cc1ccccc1)Nc1ccc(N2CCOCC2)cc1`, under setting [1], the AC50 was 31.6 µM [rising, single point]. For the compound `O=C(NCCc1ccccc1)c1cnc2ccccn2c1=O`, the AC50 under setting [1] was 10 µM [falling, partial curve].

For the compound `Cc1ccc(NS(=O)(=O)c2cccc(C(=O)NCC(c3ccc(F)cc3)N3CCOCC3)c2)cc1` (stereo not drawn), the AC50 under setting [1] is 29.1 µM [falling, single point]. Still for that read-out and setting: the figure for `CSc1ccc(/C=C/C(=O)c2ccc(NC(=O)C(C)C)cc2)cc1` is 35.5 µM [falling, single point]; for `O=C(CCc1nc2ccccc2c(=O)[nH]1)Nc1cccc(S(=O)(=O)N2CCCCC2)c1` it is 13 µM [falling, partial curve, poor fit]. With `Cc1ccc(C(=O)NCC(=O)Nc2ccc(Cl)cc2)s1`, the AC50 under setting [1] is 6.51 µM [falling, single point]. For `O=[N+]([O-])c1ccc(Cl)c(S(=O)(=O)Nc2ccc(-c3ccc(N4CCOCC4)nn3)cc2)c1`, under setting [1], the AC50 is 32.6 µM [falling, partial curve, poor fit]. `Cc1cc(=O)oc2cc(OCC(=O)Nc3c(Cl)cccc3C(F)(F)F)ccc12`: the AC50 under setting [1] is 4.47 µM [rising, single point].
